Results are given in words; binding and its absence hold for the method and conditions named. Some binding calls cover weakened binding; strength is not graded here.
Columns and labels:
[1] = target: human CCL20 anchored via a His-tag (human) (UniProt P78556); assay: ELISA on His-tag anchored human CCL20, antibody titrated (x axis 'Ab conc. (ug/ml)', falling from left to right), Abs 450
[2] = target: human CCL20 anchored via a His-tag (human) (UniProt P78556); assay: ELISA, CCL20 anchored via a His-tag

By UniProt entry, the sequences of proteins in these tests, tags left out. Where a name states a change or a piece, a line headed by the entry shows the natural chain unless it says otherwise.
UniProt P78556: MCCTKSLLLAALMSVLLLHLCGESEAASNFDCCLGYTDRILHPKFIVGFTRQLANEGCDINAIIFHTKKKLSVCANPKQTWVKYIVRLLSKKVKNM

B1: chimeric 36F7C10 antibody (36F7C10-hFc) (antibody, V domains shown)
VH: QVQLQQPGAELVKPGASVKMSCKASGYTFTNYWMHWVKQRPGQGLEWIGVIDPSDSYTTYNQKFKGKATLTVDTSSSTAYMQLSSLTSEDSAVYYCTRGNYGVDYAMDYWGQGTSVTVSS
VL: DIQMTQSPASLSASVGETVTITCGASENIYGALNWYQRKQGKSPQLLIYGATNLADGMSSRFSGSGSGRQYSLKISSLHPDDVATYYCQNVLITPYTFGGGTKLEIK
[1]
  binding: binds

B2: humanized anti-human CCL20 antibody 36LK3/36HC2 (antibody, human IgG1, kappa, V domains shown)
VH: QVQLVQSGAEVKKPGASVKVSCKASGYTFTNYWMHWVRQAPGQGLEWMGVIDPSDSYTTYAQKFQGRVTMTVDTSTSTVYMELSSLRSEDTAVYYCARGNYGVDYAMDYWGQGTLVTVSS
VL: DIQMTQSPSSLSASVGDRVTITCGASENIYGALNWYQRKPGKAPKLLIYGATNLADGVPSRFSGSGSGRDYTLTISSLQPEDFATYYCQNVLITPYTFGQGTKLEIKR
[2]
  binding: binds
[1]
  binding: binds

B3: humanized anti-human CCL20 antibody 36LC3/36HC2 (antibody, human IgG1, kappa, V domains shown)
VH: QVQLVQSGAEVKKPGASVKVSCKASGYTFTNYWMHWVRQAPGQGLEWMGVIDPSDSYTTYAQKFQGRVTMTVDTSTSTVYMELSSLRSEDTAVYYCARGNYGVDYAMDYWGQGTLVTVSS
VL: DIQMTQSPSSLSASVGDRVTITCRASENIYGALNWYQQKPGKAPKLLIYGATNLADGVPSRFSGSGSGRQYSLTISSLQPEDFATYYCQNVLITPYTFGGGTKLEIKR
[1]
  binding: binds

B4: mouse anti-human CCL20 monoclonal antibody 36F7C10 (antibody, V domains shown)
VH: QVQLQQPGAELVKPGASVKMSCKASGYTFTNYWMHWVKQRPGQGLEWIGVIDPSDSYTTYNQKFKGKATLTVDTSSSTAYMQLSSLTSEDSAVYYCTRGNYGVDYAMDYWGQGTSVTVSS
VL: DIQMTQSPASLSASVGETVTITCGASENIYGALNWYQRKQGKSPQLLIYGATNLADGMSSRFSGSGSGRQYSLKISSLHPDDVATYYCQNVLITPYTFGGGTKLEIK
[1]
  binding: binds

From patent US20160046707A1
